Drawing on paper PMC8384837, this text covers binding signal (log2 enrichment (interaction score)) for eight sequences.

The other results are listed elsewhere or left out.

In the test the target is T1, PUM1 PUF domain R6-SWD R7-NPG N1043S + Y1044W + Q1047D + S1079N + N1080P + E1083G (Homo sapiens) (UniProt Q14671).
T1 sequence: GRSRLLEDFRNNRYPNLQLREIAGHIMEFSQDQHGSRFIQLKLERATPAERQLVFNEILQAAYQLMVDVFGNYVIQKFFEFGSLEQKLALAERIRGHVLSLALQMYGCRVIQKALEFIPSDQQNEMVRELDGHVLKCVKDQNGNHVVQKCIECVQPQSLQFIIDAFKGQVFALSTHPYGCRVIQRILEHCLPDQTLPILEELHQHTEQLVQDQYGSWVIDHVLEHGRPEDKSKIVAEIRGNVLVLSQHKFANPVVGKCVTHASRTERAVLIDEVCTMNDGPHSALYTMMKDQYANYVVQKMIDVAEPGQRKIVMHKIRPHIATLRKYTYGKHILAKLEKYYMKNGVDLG
As to conditions: yeast three-hybrid, YBZ-1, SC-Leu-His + 0.5 mM 3-AT, 4 days.
Consider “GGCUAGAACUAGUGGAUCCCCCGGCGCCCGGCGGCUCGAGCCCGGGUAAGAUGAUAUCGUCUGCAUGCCGCCGGGCGCCAUGCCUGCAGGUCGACUCUAGAAAACAUG”, for which the binding signal (log2 enrichment (interaction score)) is -1.36. On to “GGCUAGAACUAGUGGAUCCCCCGGCGCCCGGCGGCUCGAGCCCGGGUAAGUCGAAGCUGUCUGCAUGCCGCCGGGCGCCAUGCCUGCAGGUCGACUCUAGAAAACAUG”, for which the binding signal (log2 enrichment (interaction score)) is -1.05.

“GGCUAGAACUAGUGGAUCCCCCGGCGCCCGGCGGCUCGAGCCCGGGUAAGUGGAUGAAGUCUGCAUGCCGCCGGGCGCCAUGCCUGCAGGUCGACUCUAGAAAACAUG”: the binding signal (log2 enrichment (interaction score)) was -0.48. Then “GGCUAGAACUAGUGGAUCCCCCGGCGCCCGGCGGCUCGAGCCCGGGUAAGUUUUCUAAGUCUGCAUGCCGCCGGGCGCCAUGCCUGCAGGUCGACUCUAGAAAACAUG”, with -1.87; and “GGCUAGAACUAGUGGAUCCCCCGGCGCCCGGCGGCUCGAGCCCGGGUAAGUUGAUAAGGUCUGCAUGCCGCCGGGCGCCAUGCCUGCAGGUCGACUCUAGAAAACAUG”, with -1.88; and “GGCUAGAACUAGUGGAUCCCCCGGCGCCCGGCGGCUCGAGCCCGGGUAAGUGGCCACUGUCUGCAUGCCGCCGGGCGCCAUGCCUGCAGGUCGACUCUAGAAAACAUG”, with -0.74.

Turning to “GGCUAGAACUAGUGGAUCCCCCGGCGCCCGGCGGCUCGAGCCCGGGUAAGUGGUAGCAGUCUGCAUGCCGCCGGGCGCCAUGCCUGCAGGUCGACUCUAGAAAACAUG”, the binding signal (log2 enrichment (interaction score)) was -0.87. To “GGCUAGAACUAGUGGAUCCCCCGGCGCCCGGCGGCUCGAGCCCGGGUAAGUCGGAUUGGUCUGCAUGCCGCCGGGCGCCAUGCCUGCAGGUCGACUCUAGAAAACAUG” belongs -0.32.
